Assay results from patent US20090233893A1, “Methods of Dissolving Beta-Sheet Proteins and Uses Thereof” (priority 2006, published 2009).
Several values for one entry are separate records, joined by “and”; a condition that tells them apart may be missing. Identical values can stand only once.

Tests used:
B. mori fibroin = details: for Amide II peak of metal chelator-dissolved protein: B. mori fibroin dissolved in 500 mM chelator/heavy water solution; for Amide I peak of metal chelator-dissolved protein: B. mori fibroin dissolved in 500 mM chelator/heavy water solution (Cu pD 13.7, Li pD 12.8)
[1] = system: tau paired helical filaments; details: paired helical filaments dissolved in 500 mM chelator/heavy water solution

Compound | Amide II peak of metal chelator-dissolved protein (B. mori fibroin) | Amide I peak of metal chelator-dissolved protein (B. mori fibroin) | Amide II peak of metal chelator-dissolved protein [1]
NCCN.[Cu+2].[OH-].[OH-] [Cu^2+en, Cu^2+ ethylene diamine hydroxide] | 1551 cm⁻¹ and 1588 cm⁻¹ | 1652 cm⁻¹ | 1590 cm⁻¹
NCCN.[Br-].[Li+] [Li^+en, Li^+ ethylene diamine bromide] | 1533 cm⁻¹ | 1652 cm⁻¹ | 1570 cm⁻¹
